This passage reports yeast fitness results from the RNAGym collection of RNA variant scans (doi:10.1126/science.aae0568).

This sample is rich in variants without activity.

B1: tRNA (parent)
chain: GUUCCGUUGGCGUAAUGGUAACGCGUCUCCCUCCUAAGGAGAAGACUGCGGGUUCGAGUCCCGUACGGAACG

The data set covers variants of B1. As to the kind of experiment: yeast fitness relative to wild type (ratio to wild type); higher = fitter; tRNA-Arg(CCU), competitive growth, 37 C, YPD. Put shortly: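 Amplicons of the tRNA-Arg(CCU) gene were sequenced, 100-nucleotide paired-end, from the start population and from each end population of a pooled yeast competition. The competition, in six parallel replicates, lasted 24 hours in YPD at 37°C. Fitness relative to wild type was calculated from changes in genotype frequencies. Genotypes had to have ≥ 100 starting reads, and estimates < 0.5 were set to 0.5.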
Turning to G6C A40C U47C G52A G58A, the yeast fitness is not above 0.5.

Regarding U7A G10A A15U, the yeast fitness was found to be 0.568.

Take A15U G18C C55U: the yeast fitness was not above 0.5.

As to C24G C30U G38C A65C, the yeast fitness was not above 0.5.

In the case of C11U A14C C22G C27G, the yeast fitness was not above 0.5.

As to C4U C49A, the yeast fitness was 0.787.

On to C33G C34U C61U G67A G68C, for which the yeast fitness was not above 0.5.

Turning to C11G U26A U53A, the yeast fitness was not above 0.5.

A15U U16C G18C C29A: the yeast fitness was not above 0.5.

In the case of U28A C62U C66A, the yeast fitness is not above 0.5.

For C4A C11U, the yeast fitness came out at 0.781.

Regarding G10C C27U G56A, the yeast fitness was not above 0.5.

With A40U C61U, the yeast fitness was 0.783.

As for U8C G50A, the yeast fitness was 0.773.

Turning to C34G A42U G44A A45C G48C U64A, the yeast fitness was not above 0.5.

Consider U16G G23C U35C, for which the yeast fitness came to 0.655.

U26C A42G U54A U59A: the yeast fitness was not above 0.5.

For the variant A21G C30G U64C, the yeast fitness is not above 0.5.

Regarding U19C A42U C46U C55G G63C, the yeast fitness was not above 0.5.

For A21C A43U G44A, the yeast fitness was not above 0.5.

With U7G U13C C31U A40U C66G G68C, the yeast fitness was not above 0.5.

Consider U2A A14U C29A C49A, for which the yeast fitness was not above 0.5.

In the case of C61U A65U, the yeast fitness is 0.724.

In the case of A15G U54C C55G, the yeast fitness is not above 0.5.

In the case of G44A C49A U59A, the yeast fitness was not above 0.5.

As to G52A A57C A65C, the yeast fitness turned out to be 0.647.

For the variant G10C A21C C27A C34A C49U, the yeast fitness is not above 0.5.

Regarding U54C C55G C60G C62A, the yeast fitness was not above 0.5.

With U26G A37U A45U G51A A65C, the yeast fitness was not above 0.5.

For A14U C29G U53C U54G C55U, the yeast fitness is not above 0.5.

For the variant C31U C66A G68C, the yeast fitness was not above 0.5.

As to C5U U8C C22U G38C, the yeast fitness was not above 0.5.

Regarding A20C C30A C34G A43U, the yeast fitness is not above 0.5.

Turning to C4G U7A C29U, the yeast fitness is 0.504.

As to G41A G48C C49U A57C A70U, the yeast fitness is not above 0.5.

Take U26C C30U A57G: the yeast fitness was not above 0.5.

Turning to C5G A20U, the yeast fitness stood at 0.621.

Turning to C5U A14C G38C A42C U64A G67A, the yeast fitness is not above 0.5.

Consider U16C U32G C34G U53A G63C, for which the yeast fitness was not above 0.5.

With G10A A20C C27G A40G, the yeast fitness was not above 0.5.

On to C11A A37U A69U, for which the yeast fitness is not above 0.5.

For A15U G23U A37U C49G A65G, the yeast fitness is not above 0.5.

With C22G A45U G48C, the yeast fitness came to 0.511.

Consider U28G A36G C62G, for which the yeast fitness is not above 0.5.

For the variant A14C U19A A45C, the yeast fitness is not above 0.5.

As for C31U U47G G63A, the yeast fitness was not above 0.5.

As for C5G A14U C22G C27G C31G C61G A69U, the yeast fitness was not above 0.5.

Turning to C4U G12A A20G C22U U59A, the yeast fitness was not above 0.5.

Turning to U3C G23C C66U, the yeast fitness was not above 0.5.

Consider C11G C29G C33U C46A C49G, for which the yeast fitness was 0.564.

Turning to C5G C33A U64A, the yeast fitness was not above 0.5.

Consider G12C A21C C66A, for which the yeast fitness was not above 0.5.

With C11U C33A C34A U35C A36C G39C U47A U59C, the yeast fitness was not above 0.5.

As to C5G U26C A36G C55G U59A U64G, the yeast fitness was not above 0.5.

For U19A U32C C49A C66A, the yeast fitness was not above 0.5.

G9A C49A C55U: the yeast fitness was not above 0.5.

Turning to A15G G39C, the yeast fitness was found to be 0.736.

As to C30G A57C, the yeast fitness was not above 0.5.

As for C27U C29G, the yeast fitness stood at 0.58.

In the case of U7C U16C G50A C55U A65G, the yeast fitness was not above 0.5.

Consider A14G C24G G50A C55G, for which the yeast fitness is not above 0.5.

Consider C5A C24G A69C, for which the yeast fitness is not above 0.5.

As to U28A A37U C62G G67C, the yeast fitness is not above 0.5.

As for G9A C29A G50A A69C, the yeast fitness is not above 0.5.

On to U13A C27U, for which the yeast fitness stood at 0.984.

For the variant U16A C49U C60G G67A, the yeast fitness is not above 0.5.

As for A14C C24A C31A C66A, the yeast fitness was not above 0.5.

In the case of C4G C5G G38A G63C, the yeast fitness was not above 0.5.

In the case of G9C U13G C24U G51C, the yeast fitness was not above 0.5.

For the variant G9C G39C A45C, the yeast fitness was not above 0.5.

Take C34U A40U C49A: the yeast fitness was not above 0.5.

Turning to A37C C55G C66U, the yeast fitness was not above 0.5.

On to C4U G38C A65G, for which the yeast fitness turned out to be 0.621.

Take G6A A21C C34U: the yeast fitness is not above 0.5.

Consider U8A A43G U47A, for which the yeast fitness is not above 0.5.

Consider G10C U32C C66G, for which the yeast fitness was not above 0.5.

Turning to U7G U28C G41C G58C, the yeast fitness was not above 0.5.

For G9C U13C A42C G68C, the yeast fitness is not above 0.5.

C46G C60G C66U: the yeast fitness is not above 0.5.

Take A14G A42C C61U: the yeast fitness was not above 0.5.

On to C11A U13C C27A C30G, for which the yeast fitness was not above 0.5.

In the case of U35A C60G C62G G68A, the yeast fitness is not above 0.5.

In the case of U2A C5A G9C U16C G25C G68C, the yeast fitness came out at 0.586.

As to G50C C55A A57C, the yeast fitness came to 0.559.

In the case of C11G G52C A57U A69U, the yeast fitness is not above 0.5.

In the case of U2C A21U C29U G39A G51C C60U C66G, the yeast fitness is not above 0.5.

A21G C30A A36U U53G: the yeast fitness was not above 0.5.

Take U3A G9A A14C C55G: the yeast fitness was not above 0.5.

Take A14U C29G G41A: the yeast fitness is not above 0.5.

For U3A C4U C31A C66G G68C, the yeast fitness was not above 0.5.

C5G G56A: the yeast fitness was determined as 0.975.

As for G10A C27A A36U A37U G48C G50A C61G A69U, the yeast fitness was not above 0.5.

On to C4G U28G C30A A43C, for which the yeast fitness is not above 0.5.

On to C5A U19A A65C, for which the yeast fitness turned out to be 0.538.

Regarding C5A C29A A45U, the yeast fitness is not above 0.5.

For the variant C27A U28A G41A G48A A65G, the yeast fitness is not above 0.5.

For A40C A45G G63A G68A, the yeast fitness was not above 0.5.

G23A C30A U64A: the yeast fitness is not above 0.5.

C11A G25A C30U A57C: the yeast fitness was not above 0.5.

G6A G18A C29U C31A: the yeast fitness is not above 0.5.

On to C29G C33U C66U, for which the yeast fitness was not above 0.5.

Take A15C G17C: the yeast fitness was 0.62.

As to C29G U32G G38A A57G, the yeast fitness was not above 0.5.

For U7C G10C C24U C46U, the yeast fitness is not above 0.5.

Take C29U C33U A43G: the yeast fitness was not above 0.5.

Consider U19A C31A A37G A65G, for which the yeast fitness was not above 0.5.

G9A G23A G39C C62G U64C: the yeast fitness was not above 0.5.

For G10C G41C C62U C66G A70G, the yeast fitness was not above 0.5.

For U16A C22U U28C U32C C55G, the yeast fitness was not above 0.5.

On to A15G C24U G38C A40G, for which the yeast fitness was not above 0.5.

As to U19A C30A C46U G52C, the yeast fitness is not above 0.5.

As for U19C G38C C55U, the yeast fitness is not above 0.5.

For the variant C11G U35C C46U C61U A69C, the yeast fitness is not above 0.5.

For U7C A20G U32A, the yeast fitness is not above 0.5.

As for U2A C5A U16C C30A, the yeast fitness is not above 0.5.

For C24G C61A, the yeast fitness was not above 0.5.

Regarding G9C G38A, the yeast fitness is 0.624.

U7C C33U G38C C46G C61U: the yeast fitness was not above 0.5.

With U2G G6A C29U, the yeast fitness was not above 0.5.

For the variant C5U C24A U32C, the yeast fitness is 0.565.

For the variant G17A G18A C61A, the yeast fitness was not above 0.5.

Turning to C4G U7C C27A A70U, the yeast fitness is not above 0.5.

Consider A40G G68A, for which the yeast fitness is 0.953.

On to U2A C46A, for which the yeast fitness came to 1.03.

For the variant U8C G17A G58A C61U, the yeast fitness was not above 0.5.

Take G6A G10A U35G A43G C46U: the yeast fitness is not above 0.5.

For the variant U3A A21C C33U U35A G51C G68C A70U, the yeast fitness was found to be 0.564.

For C55U G58A C61G A70U, the yeast fitness is not above 0.5.

For the variant C11G A37G G39A C62U, the yeast fitness was not above 0.5.

As for C27A G39A C61G, the yeast fitness was not above 0.5.

Take A57C G67C: the yeast fitness amounted to 0.707.

On to A21G C55U G63A G67C, for which the yeast fitness is not above 0.5.

Consider G10C U26A C49U G68A A69C, for which the yeast fitness is not above 0.5.

A20G C55G G63A: the yeast fitness is not above 0.5.

With G6A G56C G67U, the yeast fitness is not above 0.5.

For the variant C4G A15C A57U C61G, the yeast fitness is not above 0.5.

For the variant U54G A57C, the yeast fitness is not above 0.5.

G10A U16A A65G C66U: the yeast fitness is not above 0.5.

C30U U47A U54C: the yeast fitness is not above 0.5.

For G23A C24U C33G U35G C60U C62G, the yeast fitness is not above 0.5.

For the variant G6C U8C G38C C46A, the yeast fitness is not above 0.5.

Take C4A C29G A40U: the yeast fitness was not above 0.5.

Take C33U C34A A43C G48A: the yeast fitness was not above 0.5.

Turning to A21G U59A C61G, the yeast fitness was not above 0.5.

For the variant G10C C60G, the yeast fitness is not above 0.5.

In the case of A42C A45C G48A A65G, the yeast fitness was found to be 0.671.

Turning to U47C G58C, the yeast fitness was determined as 0.971.

As for A20U G39C C49U C55G, the yeast fitness was not above 0.5.

In the case of G18C A20G G23A G25C A37G A43C C55G G68A, the yeast fitness was not above 0.5.

U2A G50A: the yeast fitness amounted to 0.858.

Consider C30G A37C C46G G67C, for which the yeast fitness is not above 0.5.

On to G17C A21G C33A C49U C55G, for which the yeast fitness is not above 0.5.

With G10C A21G C29A A43U C55A, the yeast fitness came to 0.651.

Regarding U2A C46A G58A, the yeast fitness came out at 0.622.

Take U8C A40C C61A: the yeast fitness was not above 0.5.

Turning to A40G G51C G58A, the yeast fitness was not above 0.5.

Regarding A21G A37G A42C C46G, the yeast fitness is not above 0.5.

A40U A43C C62U G68A: the yeast fitness is not above 0.5.

On to U32G C34U C46U A57G, for which the yeast fitness is not above 0.5.

Turning to C5G U13C C62U, the yeast fitness is 0.602.

Take C11A C30A G50C: the yeast fitness is not above 0.5.

For the variant A21G C49A U54C A65G, the yeast fitness is not above 0.5.

Turning to U28A A40C C46G, the yeast fitness was not above 0.5.

Turning to C27U A43G G68C, the yeast fitness was not above 0.5.

For U19A A37U G41C C60A, the yeast fitness was not above 0.5.

In the case of G17A C22A A37C C66U, the yeast fitness is not above 0.5.

With C4U G18C U47G, the yeast fitness is not above 0.5.
